# Measured values from patent US7566808B2, “Management of ophthalmologic disorders, including macular degeneration” (President and Fellows of Harvard College, priority 2004, dated 2009).
# Some of these results come from one statement about several compounds together.
# System: Sprague Dawley rats
# Assay: 11-cis-retinal regeneration after bleaching in rats
# Type: in vivo
# Conditions: 50 mg/kg i.p. single injection, FIGS. 28A-B
# Description: To establish whether recovery of the dark-adapted rod b-wave was retarded because of an effect on 11-cis-retinal synthesis we studied the effects of TDT on 11-cis-retinal regeneration in rats and mice. The 11-cis-retinal that is regenerated is essentially all bound to rhodopsin in rodents, so that measuring its level is equivalent to measuring the rhodopsin content. Initial experiments were performed on Sprague Dawley rats because similar experiments using 13-RA were previously carried out using these animals so that ready comparisons of potency and effectiveness can be made. […] Accordingly, in the current experiments, the rats were given single injections (i.p.) of TDT (TDH) (50 mg/kg in DMSO), 13-RA (50 mg/kg in DMSO), and DMSO alone. After injecting the analogs, the rats were dark adapted for 2 h, and then exposed to light that led to <10% of dark adapted 11-cis-retinal in these animals, compared to dark adapted controls (data not shown). After allowing the bleached rats to dark-adapt again for 30 min, the animals were sacrificed, and the regenerated 11-cis-retinal was determined as indicated in Methods. In these experiments, the amount of resynthesized 11-cis-retinal, the chromophore of rhodopsin, is measured by HPLC and compared to the amounts of all-trans-retinyl ester precursor.
# These figures show results of HPLC analysis of extracted retinoids from drug treated rats. […]
structure (smiles),measurement,value
"CC1=C(/C=C/C(C)=C/C=C/C(C)=C\C(=O)O)C(C)(C)CCC1 [13-cis-retinoic acid, reference compound]",inhibition of 11-cis-retinal regeneration,4-5 fold
"CCCCCCCCCCC(=O)/C=C(\C)CC/C=C(\C)CCC=C(C)C [TDT, 13,17,21-Trimethyl-docosa-12,16,20-trien-11-one]",inhibition of 11-cis-retinal regeneration,4-5 fold
